Data published in patent US20250145665A1, “MACROCYCLIC PEPTIDES USEFUL AS MODULATORS OF TNF ALPHA” (Bristol-Myers Squibb Company, priority 2023, published 2025).
Some entries share one result that the patent states for a list of compounds. Positions of bridges follow the written chain, without caps; N, C: chain ends. Non-standard residues stand in square brackets, D forms with d. Residues, ends and D or L forms follow the SMILES beside them. Bip(4'-COOH) = N[C@@H](Cc1ccc(-c2ccc(C(=O)O)cc2)cc1)C(=O)O; Bip(4'-NHAc) = CC(=O)Nc1ccc(-c2ccc(C[C@H](N)C(=O)O)cc2)cc1; Phe(4-(4-pyridyl)) = N[C@@H](Cc1ccc(-c2ccncc2)cc1)C(=O)O; Phe(4-(3-Py)) = N[C@@H](Cc1ccc(-c2cccnc2)cc1)C(=O)O; Ala(morpholin-4-yl) = N[C@@H](CN1CCOCC1)C(=O)O; Bip = N[C@@H](Cc1ccc(-c2ccccc2)cc1)C(=O)O; Sar = CNCC(=O)O

The chains behind the UniProt entries cited, without tags or fusion partners. Residues count along the entry.
UniProt P01375, 77-233 limits assumed: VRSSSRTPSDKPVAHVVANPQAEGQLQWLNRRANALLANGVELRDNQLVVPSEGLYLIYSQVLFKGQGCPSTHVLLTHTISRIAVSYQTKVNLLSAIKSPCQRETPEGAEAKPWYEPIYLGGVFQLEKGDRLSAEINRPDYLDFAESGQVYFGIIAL

Biological target: TNFα (Homo sapiens, UniProt P01375)
Experiment: TNF-Induced HEK-Blue Assay
Type: cell-based
Conditions: summary statement for all examples; read-out: IC50 values measured in the TNF induced HEK-Blue assay

IC50, ≤ 25 µM:
CC(C)[C@@H]1NC(=O)[C@H](CCCNC(=N)N)NC(=O)[C@H](C(C)C)NC(=O)[C@@H]2CCCN2C(=O)[C@H](C(C)C)NC(=O)[C@H](CCCNC(=N)N)NC(=O)[C@H](CC(=O)O)NC(=O)[C@@H]2CCCN2C(=O)CN(C)C(=O)[C@H](Cc2ccc(-c3ccccc3)cc2)NC(=O)[C@H](Cc2ccc(-c3ccncc3)cc2)NC(=O)[C@H](CN2CCOCC2)NC(=O)CSC[C@@H](C(=O)NCC(N)=O)NC1=O [Example 87] ({CH2CO}-[Ala(morpholin-4-yl)][Phe(4-(4-pyridyl))][Bip][Sar]PDRVPVRVCG-NH2; thioether N-13), CC(C)[C@@H]1NC(=O)[C@H](CCCNC(=N)N)NC(=O)[C@H](C(C)C)NC(=O)[C@@H]2CCCN2C(=O)[C@H](C(C)C)NC(=O)[C@H](CCCNC(=N)N)NC(=O)[C@H](CC(=O)O)NC(=O)[C@@H]2CCCN2C(=O)CN(C)C(=O)[C@H](Cc2ccc(-c3ccccc3)cc2)NC(=O)[C@H](Cc2ccc(-c3cccnc3)cc2)NC(=O)[C@H](CN2CCOCC2)NC(=O)CSC[C@@H](C(=O)NCC(N)=O)NC1=O [Example 88] ({CH2CO}-[Ala(morpholin-4-yl)][Phe(4-(3-Py))][Bip][Sar]PDRVPVRVCG-NH2; thioether N-13), CC(=O)Nc1ccc(-c2ccc(C[C@@H]3NC(=O)[C@H](Cc4ccc(-c5ccccc5)cc4)NC(=O)[C@H](CN4CCOCC4)NC(=O)CSC[C@@H](C(=O)NCC(N)=O)NC(=O)[C@H](C(C)C)NC(=O)[C@H](CCCNC(=N)N)NC(=O)[C@H](C(C)C)NC(=O)[C@@H]4CCCN4C(=O)[C@H](C(C)C)NC(=O)[C@H](CCCNC(=N)N)NC(=O)[C@H](CC(=O)O)NC(=O)[C@@H]4CCCN4C(=O)CN(C)C3=O)cc2)cc1 [Example 89] ({CH2CO}-[Ala(morpholin-4-yl)][Bip][Bip(4'-NHAc)][Sar]PDRVPVRVCG-NH2; thioether N-13), CC(C)[C@@H]1NC(=O)[C@H](CCCNC(=N)N)NC(=O)[C@H](C(C)C)NC(=O)[C@@H]2CCCN2C(=O)[C@H](C(C)C)NC(=O)[C@H](CCCNC(=N)N)NC(=O)[C@H](CC(=O)O)NC(=O)[C@@H]2CCCN2C(=O)CN(C)C(=O)[C@H](Cc2ccc(-c3ccc(C(=O)O)cc3)cc2)NC(=O)[C@H](Cc2ccc(-c3ccccc3)cc2)NC(=O)[C@H](CN2CCOCC2)NC(=O)CSC[C@@H](C(=O)NCC(N)=O)NC1=O [Example 90] ({CH2CO}-[Ala(morpholin-4-yl)][Bip][Bip(4'-COOH)][Sar]PDRVPVRVCG-NH2; thioether N-13), CC(C)[C@@H]1NC(=O)[C@H](CCCNC(=N)N)NC(=O)[C@H](C(C)C)NC(=O)[C@@H]2CCCN2C(=O)[C@H](C(C)C)NC(=O)[C@H](CCCNC(=N)N)NC(=O)[C@H](CC(=O)O)NC(=O)[C@@H]2CCCN2C(=O)CN(C)C(=O)[C@H](Cc2ccc(-c3ccncc3)cc2)NC(=O)[C@H](Cc2ccc(-c3ccccc3)cc2)NC(=O)[C@H](CN2CCOCC2)NC(=O)CSC[C@@H](C(=O)NCC(N)=O)NC1=O [Example 91] ({CH2CO}-[Ala(morpholin-4-yl)][Bip][Phe(4-(4-pyridyl))][Sar]PDRVPVRVCG-NH2; thioether N-13), CC(C)[C@@H]1NC(=O)[C@H](CCCNC(=N)N)NC(=O)[C@H](C(C)C)NC(=O)[C@@H]2CCCN2C(=O)[C@H](C(C)C)NC(=O)[C@H](CCCNC(=N)N)NC(=O)[C@H](CC(=O)O)NC(=O)[C@@H]2CCCN2C(=O)CN(C)C(=O)[C@H](Cc2ccc(-c3cccnc3)cc2)NC(=O)[C@H](Cc2ccc(-c3ccccc3)cc2)NC(=O)[C@H](CN2CCOCC2)NC(=O)CSC[C@@H](C(=O)NCC(N)=O)NC1=O [Example 92] ({CH2CO}-[Ala(morpholin-4-yl)][Bip][Phe(4-(3-Py))][Sar]PDRVPVRVCG-NH2; thioether N-13)
